# Results as given in the supplement of paper PMC12067093, “Discovery and optimisation of a covalent ligand for TRIM25 and its application to targeted protein ubiquitination” (Chemical Science, 2025).
# Amino acid sequences for entries named in this document (tags omitted). A change or cut given only in a name is not applied to a line headed by its entry.
# UniProt Q14258, whole entry, looked up: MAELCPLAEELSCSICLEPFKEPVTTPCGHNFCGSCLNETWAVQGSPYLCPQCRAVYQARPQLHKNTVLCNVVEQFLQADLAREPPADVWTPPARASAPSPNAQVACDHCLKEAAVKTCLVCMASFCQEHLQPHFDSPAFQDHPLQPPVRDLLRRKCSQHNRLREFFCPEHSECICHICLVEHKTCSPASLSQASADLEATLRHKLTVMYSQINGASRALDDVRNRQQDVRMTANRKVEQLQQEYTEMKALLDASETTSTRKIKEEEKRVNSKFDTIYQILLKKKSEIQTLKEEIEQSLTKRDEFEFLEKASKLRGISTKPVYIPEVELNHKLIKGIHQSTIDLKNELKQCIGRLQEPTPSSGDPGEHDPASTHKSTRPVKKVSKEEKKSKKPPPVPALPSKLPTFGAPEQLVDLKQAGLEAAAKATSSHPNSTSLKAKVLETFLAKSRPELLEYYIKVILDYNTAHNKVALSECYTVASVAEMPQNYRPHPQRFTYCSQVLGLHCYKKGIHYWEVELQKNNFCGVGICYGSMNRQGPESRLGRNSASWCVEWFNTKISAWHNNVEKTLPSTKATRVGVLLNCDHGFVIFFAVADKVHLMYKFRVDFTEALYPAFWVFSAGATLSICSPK
# UniProt Q9UPN9: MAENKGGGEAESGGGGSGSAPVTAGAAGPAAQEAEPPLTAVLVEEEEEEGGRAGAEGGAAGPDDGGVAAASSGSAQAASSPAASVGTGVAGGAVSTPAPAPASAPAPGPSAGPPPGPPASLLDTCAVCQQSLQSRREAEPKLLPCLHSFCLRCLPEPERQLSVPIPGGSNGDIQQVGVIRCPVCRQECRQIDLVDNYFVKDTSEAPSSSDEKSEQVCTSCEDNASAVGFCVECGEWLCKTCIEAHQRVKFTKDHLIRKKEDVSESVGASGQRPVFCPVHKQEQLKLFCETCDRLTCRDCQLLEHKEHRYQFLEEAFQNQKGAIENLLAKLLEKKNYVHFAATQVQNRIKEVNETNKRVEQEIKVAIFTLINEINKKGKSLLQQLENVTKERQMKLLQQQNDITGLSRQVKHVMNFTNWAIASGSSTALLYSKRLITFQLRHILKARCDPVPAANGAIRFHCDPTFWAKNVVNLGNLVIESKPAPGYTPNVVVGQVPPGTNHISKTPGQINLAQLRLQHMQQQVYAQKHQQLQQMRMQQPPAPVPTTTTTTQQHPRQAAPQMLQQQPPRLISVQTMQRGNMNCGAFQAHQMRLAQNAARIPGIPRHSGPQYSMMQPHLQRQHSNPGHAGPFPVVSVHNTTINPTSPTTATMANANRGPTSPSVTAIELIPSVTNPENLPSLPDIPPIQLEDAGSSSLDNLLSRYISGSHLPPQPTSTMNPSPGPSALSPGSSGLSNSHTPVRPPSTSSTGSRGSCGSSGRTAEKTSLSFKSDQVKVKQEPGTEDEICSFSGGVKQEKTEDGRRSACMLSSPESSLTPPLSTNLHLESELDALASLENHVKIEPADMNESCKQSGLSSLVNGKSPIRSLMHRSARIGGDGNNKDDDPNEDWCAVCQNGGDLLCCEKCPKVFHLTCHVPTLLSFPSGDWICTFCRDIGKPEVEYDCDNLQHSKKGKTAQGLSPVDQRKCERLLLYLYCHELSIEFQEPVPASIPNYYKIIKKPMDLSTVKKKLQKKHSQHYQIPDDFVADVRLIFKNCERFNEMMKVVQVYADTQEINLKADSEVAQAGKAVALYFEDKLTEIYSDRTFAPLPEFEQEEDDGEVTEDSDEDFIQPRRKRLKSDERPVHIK
# UniProt A5PLN9: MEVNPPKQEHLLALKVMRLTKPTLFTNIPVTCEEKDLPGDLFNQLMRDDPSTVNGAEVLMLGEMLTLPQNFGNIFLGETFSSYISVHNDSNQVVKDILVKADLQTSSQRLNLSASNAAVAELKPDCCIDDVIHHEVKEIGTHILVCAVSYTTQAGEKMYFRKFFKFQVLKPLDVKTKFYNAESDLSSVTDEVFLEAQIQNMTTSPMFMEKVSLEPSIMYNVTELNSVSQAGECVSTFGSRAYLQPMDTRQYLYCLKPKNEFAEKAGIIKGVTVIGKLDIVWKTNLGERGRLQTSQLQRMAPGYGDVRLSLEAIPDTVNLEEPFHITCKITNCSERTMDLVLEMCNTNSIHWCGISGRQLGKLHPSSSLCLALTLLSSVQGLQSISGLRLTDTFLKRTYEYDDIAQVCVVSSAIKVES
# UniProt Q96PN7: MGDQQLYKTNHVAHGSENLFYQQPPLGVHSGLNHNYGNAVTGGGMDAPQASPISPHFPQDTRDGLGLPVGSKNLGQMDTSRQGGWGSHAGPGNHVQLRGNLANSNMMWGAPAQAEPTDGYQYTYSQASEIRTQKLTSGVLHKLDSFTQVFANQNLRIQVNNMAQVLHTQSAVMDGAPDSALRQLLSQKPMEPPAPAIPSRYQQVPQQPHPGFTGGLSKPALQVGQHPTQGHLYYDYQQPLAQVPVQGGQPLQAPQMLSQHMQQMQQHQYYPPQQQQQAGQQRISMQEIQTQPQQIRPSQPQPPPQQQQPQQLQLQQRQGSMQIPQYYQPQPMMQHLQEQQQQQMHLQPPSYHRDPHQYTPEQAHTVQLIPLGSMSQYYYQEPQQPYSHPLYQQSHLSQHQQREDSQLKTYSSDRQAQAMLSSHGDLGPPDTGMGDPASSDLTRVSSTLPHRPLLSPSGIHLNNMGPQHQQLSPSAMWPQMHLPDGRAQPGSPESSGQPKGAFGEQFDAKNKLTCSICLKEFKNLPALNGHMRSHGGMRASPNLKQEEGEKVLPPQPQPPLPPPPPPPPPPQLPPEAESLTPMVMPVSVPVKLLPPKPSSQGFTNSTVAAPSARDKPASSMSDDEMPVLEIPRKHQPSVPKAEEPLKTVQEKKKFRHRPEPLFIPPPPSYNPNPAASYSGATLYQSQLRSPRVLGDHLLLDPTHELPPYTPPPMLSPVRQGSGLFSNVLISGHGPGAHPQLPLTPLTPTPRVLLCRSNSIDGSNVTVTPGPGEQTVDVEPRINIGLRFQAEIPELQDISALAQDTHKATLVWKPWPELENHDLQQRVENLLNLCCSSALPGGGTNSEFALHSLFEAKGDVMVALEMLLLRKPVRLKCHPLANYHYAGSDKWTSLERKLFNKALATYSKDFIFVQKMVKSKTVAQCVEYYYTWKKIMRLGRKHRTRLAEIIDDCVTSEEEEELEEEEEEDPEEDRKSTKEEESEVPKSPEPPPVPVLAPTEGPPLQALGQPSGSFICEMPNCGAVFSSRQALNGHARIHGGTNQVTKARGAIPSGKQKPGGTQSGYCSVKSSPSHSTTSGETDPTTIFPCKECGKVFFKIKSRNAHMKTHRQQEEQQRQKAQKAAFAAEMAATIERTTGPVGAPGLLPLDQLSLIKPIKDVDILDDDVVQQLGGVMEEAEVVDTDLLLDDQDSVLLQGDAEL
# UniProt P62995: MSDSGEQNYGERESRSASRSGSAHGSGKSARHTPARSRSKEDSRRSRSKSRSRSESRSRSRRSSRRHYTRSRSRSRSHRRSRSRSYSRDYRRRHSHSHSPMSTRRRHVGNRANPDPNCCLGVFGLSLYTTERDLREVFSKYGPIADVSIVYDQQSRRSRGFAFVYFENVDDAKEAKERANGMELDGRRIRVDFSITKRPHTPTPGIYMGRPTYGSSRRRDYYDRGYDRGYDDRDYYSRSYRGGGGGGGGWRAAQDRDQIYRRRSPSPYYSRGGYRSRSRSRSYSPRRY
# UniProt O60858: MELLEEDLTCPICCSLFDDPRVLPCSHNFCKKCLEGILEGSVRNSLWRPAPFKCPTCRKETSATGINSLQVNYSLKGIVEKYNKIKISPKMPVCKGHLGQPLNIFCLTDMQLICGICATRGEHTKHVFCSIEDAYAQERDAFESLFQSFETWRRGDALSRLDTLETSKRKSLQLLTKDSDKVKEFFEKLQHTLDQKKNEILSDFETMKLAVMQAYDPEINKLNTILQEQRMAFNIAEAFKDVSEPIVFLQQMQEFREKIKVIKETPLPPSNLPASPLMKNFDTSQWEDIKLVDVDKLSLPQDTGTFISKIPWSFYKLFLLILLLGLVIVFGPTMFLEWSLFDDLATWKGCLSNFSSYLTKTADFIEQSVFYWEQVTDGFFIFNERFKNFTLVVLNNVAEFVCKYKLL
# UniProt O15164: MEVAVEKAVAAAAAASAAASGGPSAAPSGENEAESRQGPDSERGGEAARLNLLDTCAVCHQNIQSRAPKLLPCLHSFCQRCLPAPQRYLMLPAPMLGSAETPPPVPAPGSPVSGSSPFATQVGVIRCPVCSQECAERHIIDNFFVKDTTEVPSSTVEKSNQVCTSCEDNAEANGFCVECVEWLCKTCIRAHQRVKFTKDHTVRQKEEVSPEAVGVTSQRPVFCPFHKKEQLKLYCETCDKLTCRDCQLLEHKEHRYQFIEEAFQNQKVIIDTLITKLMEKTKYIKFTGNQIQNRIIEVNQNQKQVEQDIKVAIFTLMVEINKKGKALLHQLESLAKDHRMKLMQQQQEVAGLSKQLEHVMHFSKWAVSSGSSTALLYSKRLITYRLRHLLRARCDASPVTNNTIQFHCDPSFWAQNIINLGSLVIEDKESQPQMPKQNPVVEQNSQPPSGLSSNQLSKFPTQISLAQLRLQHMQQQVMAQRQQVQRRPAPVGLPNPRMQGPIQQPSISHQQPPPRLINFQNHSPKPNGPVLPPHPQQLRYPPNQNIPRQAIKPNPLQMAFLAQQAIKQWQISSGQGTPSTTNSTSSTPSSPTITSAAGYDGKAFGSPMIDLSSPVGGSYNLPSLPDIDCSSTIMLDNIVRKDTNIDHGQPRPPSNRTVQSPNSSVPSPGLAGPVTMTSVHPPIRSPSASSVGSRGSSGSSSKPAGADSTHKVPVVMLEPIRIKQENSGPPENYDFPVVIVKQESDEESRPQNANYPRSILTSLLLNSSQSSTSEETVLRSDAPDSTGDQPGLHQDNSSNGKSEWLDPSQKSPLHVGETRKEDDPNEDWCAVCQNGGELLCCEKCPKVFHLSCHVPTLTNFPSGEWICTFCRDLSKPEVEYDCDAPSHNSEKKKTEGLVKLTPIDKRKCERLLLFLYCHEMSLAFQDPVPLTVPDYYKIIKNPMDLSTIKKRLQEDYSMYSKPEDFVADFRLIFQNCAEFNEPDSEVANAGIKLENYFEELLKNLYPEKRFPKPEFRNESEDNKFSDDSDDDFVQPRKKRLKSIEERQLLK
# UniProt Q9NXH9: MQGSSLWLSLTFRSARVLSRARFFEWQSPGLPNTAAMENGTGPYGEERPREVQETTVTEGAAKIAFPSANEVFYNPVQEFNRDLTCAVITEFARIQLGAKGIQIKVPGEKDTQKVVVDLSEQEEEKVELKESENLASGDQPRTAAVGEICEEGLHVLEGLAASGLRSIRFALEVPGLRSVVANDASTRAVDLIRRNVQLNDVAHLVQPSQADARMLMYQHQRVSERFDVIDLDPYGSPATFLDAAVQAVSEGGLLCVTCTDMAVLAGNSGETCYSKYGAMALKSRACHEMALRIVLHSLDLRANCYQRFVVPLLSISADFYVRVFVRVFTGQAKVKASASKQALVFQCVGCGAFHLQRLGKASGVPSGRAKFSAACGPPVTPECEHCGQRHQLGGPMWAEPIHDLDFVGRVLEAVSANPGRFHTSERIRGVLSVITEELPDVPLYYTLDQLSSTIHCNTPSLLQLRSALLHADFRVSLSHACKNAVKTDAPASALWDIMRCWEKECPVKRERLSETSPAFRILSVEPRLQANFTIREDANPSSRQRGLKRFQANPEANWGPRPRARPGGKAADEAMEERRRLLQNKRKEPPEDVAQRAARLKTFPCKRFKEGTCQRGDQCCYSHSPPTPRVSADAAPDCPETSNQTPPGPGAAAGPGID
# UniProt Q8IZ69: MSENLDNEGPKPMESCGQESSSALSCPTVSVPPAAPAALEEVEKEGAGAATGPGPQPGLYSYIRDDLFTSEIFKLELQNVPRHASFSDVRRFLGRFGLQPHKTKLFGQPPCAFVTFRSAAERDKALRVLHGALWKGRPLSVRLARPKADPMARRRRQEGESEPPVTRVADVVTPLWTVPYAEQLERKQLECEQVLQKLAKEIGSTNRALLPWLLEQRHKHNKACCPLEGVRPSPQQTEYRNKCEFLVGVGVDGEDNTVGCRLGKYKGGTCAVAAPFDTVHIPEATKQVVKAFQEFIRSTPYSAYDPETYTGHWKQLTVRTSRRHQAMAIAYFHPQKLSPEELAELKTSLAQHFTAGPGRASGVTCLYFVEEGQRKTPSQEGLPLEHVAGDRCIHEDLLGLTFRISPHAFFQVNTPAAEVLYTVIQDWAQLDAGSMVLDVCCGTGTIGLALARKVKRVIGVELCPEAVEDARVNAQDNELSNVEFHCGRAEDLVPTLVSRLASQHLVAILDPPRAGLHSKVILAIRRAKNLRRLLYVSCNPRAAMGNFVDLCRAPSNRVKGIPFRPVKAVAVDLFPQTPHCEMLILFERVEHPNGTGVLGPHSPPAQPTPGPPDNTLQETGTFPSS
# UniProt O43715: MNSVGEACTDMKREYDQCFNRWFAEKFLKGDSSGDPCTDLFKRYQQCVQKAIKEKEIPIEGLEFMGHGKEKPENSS
# The list shows a part of the results.
# Compound: Cc1cc(ccc1-c1ccccc1)C(=O)N1CCCN(CC1)C(=O)CCl [compound 10]
# Experiment: probe-labelled cysteine peptide fold change vs DMSO (competition) (log2 fold change); higher = less target engagement (more negative = stronger competition)
# Details: 10 µM; THP-1; incubation time: 4 h
# 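Further: competitive profiling in live THP-1 cells: cysteine peptides tagged with an iodoacetamide desthiobiotin (IA-DTB) probe, intensity after compound treatment relative to DMSO-treated cells.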
row,Target,probe-labelled cysteine peptide fold change
1,TRIM25_Q14258_70_NTVLCNVVEQFLQADLAR (UniProt Q14258),-0.125
2,TRIM33_Q9UPN9_276_EDVSESVGASGQRPVFCPVHK (UniProt Q9UPN9),0.0332
3,TRAPPC13_A5PLN9_32_LTKPTLFTNIPVTCEEK (UniProt A5PLN9),-0.265
4,TRIM25_Q14258_174+176+179_LREFFCPEHSECICHICLVEHK (UniProt Q14258),-0.202
5,TRERF1_Q96PN7_514_LTCSICLK (UniProt Q96PN7),-0.161
6,TRA2B_P62995_119_ANPDPNCCLGVFGLSLYTTER (UniProt P62995),0.163
7,TRIM13_O60858_25_VLPCSHNFCK (UniProt O60858),0.00631
8,TPX2_Q9ULW0_301_GCTIVK (UniProt Q9ULW0),0.583
9,TRAPPC9_Q96Q05_179_IPLLCVPFEK (UniProt Q96Q05),-0.447
10,TRIP12_Q14669_1538_TCPFFFPFDTR (UniProt Q14669),0.173
11,TRIM24_O15164_223_QKEEVSPEAVGVTSQRPVFCPFHK (UniProt O15164),-0.0447
12,TRMT1_Q9NXH9_376_FSAACGPPVTPECEHCGQR (UniProt Q9NXH9),0.00575
13,TRIP6_Q15654_387_GLDGIPFTVDATSQIHCIEDFHRK (UniProt Q15654),0.0396
14,TRHDE_Q9UKU6_894_ILLEALTCSDDRNLLNR (UniProt Q9UKU6),0.0302
15,TRMT2A_Q8IZ69_270_GGTCAVAAPFDTVHIPEATK (UniProt Q8IZ69),-0.0935
16,TRIM24_O15164_882_DLSKPEVEYDCDAPSHNSEK (UniProt O15164),-0.0206
17,TPP2_P29144_197_YSDPGPVYDCLVWHDGEVWR (UniProt P29144),0.0898
18,TRMT1_Q9NXH9_482_VSLSHACK (UniProt Q9NXH9),-0.0941
19,TPRKB_Q9Y3C4_13_MQLTHQLDLFPECR (UniProt Q9Y3C4),-0.0844
20,TRIM26_Q12899_334_CVTYTSLYK (UniProt Q12899),0.0635

# Same assay, conditions: 50 µM; THP-1; incubation time: 4 h
row,Target,probe-labelled cysteine peptide fold change
1,TRIM25_Q14258_524_NNFCGVGICYGSMNR (UniProt Q14258),-0.323
2,TRIM38_O00635_188_NLQCFLHEEEK (UniProt O00635),-0.256
3,TRAP1_Q12931_501_NIYYLCAPNR (UniProt Q12931),0.108
4,TRIOBP_Q9H2D6_2271_GFIASQGMGNGCGR (UniProt Q9H2D6),-0.235
5,TRMT1L_Q7Z2T5_186_MGAHYHCIICSATITR (UniProt Q7Z2T5),0.31
6,TPRA1_Q86W33_296_CQVDETEEPDVHLPQPYAVAR (UniProt Q86W33),-1.52
7,TRIM33_Q9UPN9_582_GNMNCGAFQAHQMR (UniProt Q9UPN9),-0.598
8,TRIM24_O15164_246_DCQLLEHK (UniProt O15164),-0.116
9,TRIAP1_O43715_37_GDSSGDPCTDLFK (UniProt O43715),0.192
10,TRAPPC13_A5PLN9-4_326_ITNCSSER (UniProt A5PLN9),0.0668
11,TRIM36_Q9NQ86_48_ELFTHPLILPCQHSICHK (UniProt Q9NQ86),0.00235
12,TPRN_Q4KMQ1_536_EAEEEEASCLLGPTLK (UniProt Q4KMQ1),-0.0585
13,TRMT1L_Q7Z2T5_656_FLCYLSQAGFR (UniProt Q7Z2T5),-0.286
14,TRMT2A_Q8IZ69_243+260_CEFLVGVGVDGEDNTVGCR (UniProt Q8IZ69),-0.0652
15,TRAF6_Q9Y4K3_208_EIHDQNCPLANVICEYCNTILIR (UniProt Q9Y4K3),0.333
16,TRAF2_Q12933_156_HLEHECPER (UniProt Q12933),-0.107
17,TRIM25_Q14258_70_NTVLCNVVEQFLQADLAR (UniProt Q14258),-0.0132
18,TRIM33_Q9UPN9_276_EDVSESVGASGQRPVFCPVHK (UniProt Q9UPN9),0.329
19,TRAPPC13_A5PLN9_32_LTKPTLFTNIPVTCEEK (UniProt A5PLN9),-0.143
20,TRIM25_Q14258_174+176+179_LREFFCPEHSECICHICLVEHK (UniProt Q14258),-0.763
21,TRERF1_Q96PN7_514_LTCSICLK (UniProt Q96PN7),-0.076
22,TRA2B_P62995_119_ANPDPNCCLGVFGLSLYTTER (UniProt P62995),0.111
23,TRIM13_O60858_25_VLPCSHNFCK (UniProt O60858),-0.119
